Assay results from US8304388B2 (GE Healthcare Limited, priority 2006, dated 2012).

Assay: general procedure: Fmoc solid-phase peptide synthesis; Nova Biochem Rink MBHA resin (0.58 mmole/g or 0.72 mmole/g); HBTU-HOBt-DIEA
Details: for crude mass: scale 0.05 mmol; for final HPLC purity: LC-MS
[1] = whole synthesis, scale of the general procedure 0.1 mmole or 0.25 mmole
[2] = whole synthesis, scale 0.03 mmole
[3] = whole synthesis, scale 0.05 mmole

Chelate 1-Glut-Ala-Asn-Ala-Ala-Leu-Lys(ivDde)-Ala-Gly-Glu-Leu-Tyr-Lys(ivDde)-Abu-Ile-Leu-Tyr-PEG(4)-diglycoloyl-NH2
crude mass (whole synthesis): 95 mg

Chelate 1-Glut-Ala-Asn-Ala-Ala-Leu-Lys(ivDde)-Ala-Gly-Glu-Leu-Tyr-N-Me-Lys(ivDde)-Abu-Ile-Leu-Tyr-PEG(4)-diglycoloyl-NH2
crude mass (whole synthesis): 77 mg

Chelate I-ANAALKAGELYK-[Abu]-ILY
final HPLC purity (late stage modification step): 98%

Chelate II-MIVVELTNPLKSSGIENGAFQGMKK
final HPLC purity [1]: 98% | isolated mass [2]: 1 mg

HYNIC-ANAALKAGELYK-[Abu]-ILY
final HPLC purity [1]: 98% | isolated mass (whole synthesis, scale 0.01 mmole): 1 mg

[Chelate II]-ANAALKAGELYKCILY-NH2
final HPLC purity [1]: 98% | isolated mass [3]: 5.8 mg | difficulty met [1]: a large proportion of a deletion peptide (probably -Leu) was observed

[Chelate II]-KELNLVYT
final HPLC purity [1]: 99% | isolated mass [3]: 8.7 mg

α-His-[Ac]-ANAALKAGELYK-[Abu]-ILY
final HPLC purity [1]: 98% | isolated mass [2]: 2 mg
